{"source": "PubChem BioAssay AID1508597 (Cure First, 2020)", "test": "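Genes whose silencing sensitises or protects ovarian cancer cells against rucaparib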 (primary screen)", "cell system": "human ovarian carcinoma lines grown from tumours: OCI-P5x (papillary serous) and OCI-C5x (clear cell)", "reagents": "siRNA pool against human genes, 1.25 pmol siRNA per well", "duration": "72 h or 96 h, depending on the cell culture", "conditions": "rucaparib 20 µM (about IC30) or vehicle, present until read-out", "rucaparib or vehicle": "Vehicle", "cell line": "OCI-C5x (clear cell)", "measured": "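ATP luminescence measured at 72 or 96 h according to the culture, then normalised and expressed as percent viability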", "direction": "viability, normalised: higher = more viable cells remaining", "hit rule": "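a well counts as a hit if its normalised viability is under 80 percent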", "calls": "active = viability under 80%; inactive = viability 80% or more", "note": "This is a random part of the about 2,100 reagents, in one setting of the screen. 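Calls flag viability under 80% in either arm, not effects specific to rucaparib; the reference for percent is not stated.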 Unmarked entries are inactive. Not given: the 100% reference."}
{"Gene": "CHMP5 (charged multivesicular body protein 5)", "technical replicate": "1", "viability, normalised (%)": "42.1 (active)"}
{"Gene": "CHMP5 (charged multivesicular body protein 5)", "technical replicate": "2", "viability, normalised (%)": "23.9 (active)"}
{"Gene": "CHMP5 (charged multivesicular body protein 5)", "technical replicate": "3", "viability, normalised (%)": "32.3 (active)"}
{"Gene": "MAPK1 (mitogen-activated protein kinase 1)", "technical replicate": "1", "viability, normalised (%)": "38 (active)"}
{"Gene": "MAPK1 (mitogen-activated protein kinase 1)", "technical replicate": "2", "viability, normalised (%)": "60 (active)"}
{"Gene": "MAPK1 (mitogen-activated protein kinase 1)", "technical replicate": "3", "viability, normalised (%)": "53.8 (active)"}
{"Gene": "TTBK2 (tau tubulin kinase 2)", "technical replicate": "1", "viability, normalised (%)": "49.4 (active)"}
{"Gene": "TTBK2 (tau tubulin kinase 2)", "technical replicate": "2", "viability, normalised (%)": "59.5 (active)"}
{"Gene": "TTBK2 (tau tubulin kinase 2)", "technical replicate": "3", "viability, normalised (%)": "55.1 (active)"}
{"Gene": "PWWP2B (PWWP domain containing 2B)", "technical replicate": "1", "viability, normalised (%)": "44.5 (active)"}
{"Gene": "PWWP2B (PWWP domain containing 2B)", "technical replicate": "2", "viability, normalised (%)": "37.7 (active)"}
{"Gene": "PWWP2B (PWWP domain containing 2B)", "technical replicate": "3", "viability, normalised (%)": "48.3 (active)"}
{"Gene": "RNF17 (ring finger protein 17)", "technical replicate": "1", "viability, normalised (%)": "38.6 (active)"}
{"Gene": "RNF17 (ring finger protein 17)", "technical replicate": "2", "viability, normalised (%)": "39.1 (active)"}
{"Gene": "RNF17 (ring finger protein 17)", "technical replicate": "3", "viability, normalised (%)": "47.9 (active)"}
{"Gene": "PFKFB1 (6-phosphofructo-2-kinase/fructose-2,6-biphosphatase 1)", "technical replicate": "1", "viability, normalised (%)": "68.5 (active)"}
{"Gene": "PFKFB1 (6-phosphofructo-2-kinase/fructose-2,6-biphosphatase 1)", "technical replicate": "2", "viability, normalised (%)": "58 (active)"}
{"Gene": "PFKFB1 (6-phosphofructo-2-kinase/fructose-2,6-biphosphatase 1)", "technical replicate": "3", "viability, normalised (%)": "56.4 (active)"}
{"Gene": "TRIP13 (thyroid hormone receptor interactor 13)", "technical replicate": "1", "viability, normalised (%)": "55 (active)"}
{"Gene": "TRIP13 (thyroid hormone receptor interactor 13)", "technical replicate": "2", "viability, normalised (%)": "43.6 (active)"}
{"Gene": "TRIP13 (thyroid hormone receptor interactor 13)", "technical replicate": "3", "viability, normalised (%)": "54.7 (active)"}
{"Gene": "PCK2 (phosphoenolpyruvate carboxykinase 2, mitochondrial)", "technical replicate": "1", "viability, normalised (%)": "75.5 (active)"}
{"Gene": "PCK2 (phosphoenolpyruvate carboxykinase 2, mitochondrial)", "technical replicate": "2", "viability, normalised (%)": "54.8 (active)"}
{"Gene": "PCK2 (phosphoenolpyruvate carboxykinase 2, mitochondrial)", "technical replicate": "3", "viability, normalised (%)": "58.6 (active)"}
{"Gene": "MAST1 (microtubule associated serine/threonine kinase 1)", "technical replicate": "1", "viability, normalised (%)": "49.1 (active)"}
{"Gene": "MAST1 (microtubule associated serine/threonine kinase 1)", "technical replicate": "2", "viability, normalised (%)": "44.1 (active)"}
{"Gene": "MAST1 (microtubule associated serine/threonine kinase 1)", "technical replicate": "3", "viability, normalised (%)": "38.4 (active)"}
{"Gene": "ABCG2 (ATP binding cassette subfamily G member 2 (JR blood group))", "technical replicate": "1", "viability, normalised (%)": "68.9 (active)"}
{"Gene": "ABCG2 (ATP binding cassette subfamily G member 2 (JR blood group))", "technical replicate": "2", "viability, normalised (%)": "65.7 (active)"}
{"Gene": "ABCG2 (ATP binding cassette subfamily G member 2 (JR blood group))", "technical replicate": "3", "viability, normalised (%)": "74.1 (active)"}
{"Gene": "BLNK (B cell linker)", "technical replicate": "1", "viability, normalised (%)": "30.5 (active)"}
{"Gene": "BLNK (B cell linker)", "technical replicate": "2", "viability, normalised (%)": "36.7 (active)"}
{"Gene": "BLNK (B cell linker)", "technical replicate": "3", "viability, normalised (%)": "50.9 (active)"}

As entered above.
Under “viability, normalised (%)”, BLNK (B cell linker), technical replicate 2 has 36.7 (active)
Entry for BLNK (B cell linker), technical replicate 1 under “viability, normalised (%)”: 30.5 (active)
